Measurements as given in PMC2577008, “The Transcriptional Repressor Protein NsrR Senses Nitric Oxide Directly via a [2Fe-2S] Cluster” (PLoS ONE, 2008).
Construct, isoform or probe ends are uncertain for at least one entry.

Sequences of proteins named here, by UniProt entry; tags and fusion partners are left off. A change or cut given only in a name is not applied to a line headed by its entry.
UniProt Q9L132: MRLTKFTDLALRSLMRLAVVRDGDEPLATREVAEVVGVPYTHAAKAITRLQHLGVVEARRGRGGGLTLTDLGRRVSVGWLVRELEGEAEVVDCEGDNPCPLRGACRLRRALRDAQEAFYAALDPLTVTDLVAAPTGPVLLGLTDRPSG

Biological target: [2Fe-2S] NsrR (holo) (Streptomyces coelicolor) (UniProt Q9L132)
Assay: EMSA
Conditions: [2Fe-2S] cluster, no NO; EMSA: 10 mM Tris-HCl pH 7.5, 60 mM KCl, on ice 2 min, ~20 ng probe, NsrR diluted to 500 nM in 50 mM Tris pH 7.0 (legend: 50 mM Tris pH 7.0, 100 mM NaCl); recombinant protein; label: 35S-dATP Klenow fill-in; probe letters rebuilt from the primers and the genome; part of a longer molecule

| Sequence | binding result |
| --- | --- |
| GACGGACCGCCCCTCGGGATGACGGGCGGCGGCCCCCTGAGGCCGTCGAGCTGTGGCCTAAAACACGAATATCATCTACCAATTAAGGAGTCGCTGTGCTCTCCGAACAGTCCGTTCCCGTGGTCCGAGCCACCCTCCCCGCCGTCGGAGCGGCCATCGGTGACATCGC (double strand) [hmpA1 promoter fragment] | binds |
| TCCGGCCGCTGTCCGGTCTCACTGAGAAGACGGGCCGCACAGACGGTCCGTGGCACGTCGGAAAACAAGCATCTGAGATCCCAGTTCGGAGTAGGCATGCTCTCCAGTCAGTCGGCCCAGATCGTCCGCGACACGCTCCCCACCGTCGGAGCCTCGCTCGGCACGATC (double strand) [hmpA2 promoter fragment] | binds |
